Results of single-concentration screens

By UniProt entry, the sequences of proteins in these tests, tags left out. Residues count along the entry.
UniProt P9WFT3, whole entry: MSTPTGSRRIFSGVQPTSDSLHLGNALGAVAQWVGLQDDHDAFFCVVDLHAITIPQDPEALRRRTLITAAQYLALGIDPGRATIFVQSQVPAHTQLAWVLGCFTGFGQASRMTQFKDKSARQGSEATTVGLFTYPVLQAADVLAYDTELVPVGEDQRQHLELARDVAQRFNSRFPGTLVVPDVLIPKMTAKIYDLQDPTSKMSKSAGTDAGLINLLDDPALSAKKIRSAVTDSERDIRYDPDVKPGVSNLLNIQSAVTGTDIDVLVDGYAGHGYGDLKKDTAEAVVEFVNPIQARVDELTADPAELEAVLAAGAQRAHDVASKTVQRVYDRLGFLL
UniProt Q4DA54, 1-478: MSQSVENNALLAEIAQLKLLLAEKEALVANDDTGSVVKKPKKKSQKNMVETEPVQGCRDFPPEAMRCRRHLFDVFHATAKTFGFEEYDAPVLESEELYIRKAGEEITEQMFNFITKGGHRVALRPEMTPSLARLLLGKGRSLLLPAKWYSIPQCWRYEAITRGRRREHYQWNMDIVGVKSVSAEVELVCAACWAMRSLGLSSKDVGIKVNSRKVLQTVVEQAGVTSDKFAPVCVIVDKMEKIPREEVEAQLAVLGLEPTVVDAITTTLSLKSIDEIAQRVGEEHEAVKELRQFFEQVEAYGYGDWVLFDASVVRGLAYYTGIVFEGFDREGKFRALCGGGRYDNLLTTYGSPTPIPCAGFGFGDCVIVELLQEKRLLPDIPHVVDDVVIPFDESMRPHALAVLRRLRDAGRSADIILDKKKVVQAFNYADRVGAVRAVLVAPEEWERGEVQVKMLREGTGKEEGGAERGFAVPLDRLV

Source: ChEMBL document CHEMBL3988442, “University of Dundee, Small-Polar-MMV Screening Library” (2021).

Results are given as percent effect. How 0% and 100% were set is not recorded. Most values in the screen are low, and negative values occur. The compounds are a random part of those screened. Two or more numbers in one place are separate tests of the same structure; such repeats can differ widely. A dash means the value is not listed here; it may have been measured.

MtTrpRS: 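Tryptophan-tRNA ligase, Mycobacterium tuberculosis (UniProt P9WFT3). Enzyme assay of tryptophanyl-tRNA synthetase; the read-out is not stated. Compounds at 10 µM. Direction is not recorded; retested compounds ran higher, which suggests that high means inhibition. Of about 65,000 compounds tested this way, about 64 (0.098%) reached 50% or more in at least one test.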
Leishmania in macrophages: 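Cell assay of Leishmania donovani living inside macrophages; the read-out is not stated. Tested at 30 µM. The record gives no direction; compounds that gave an IC50 in retests scored well above the rest, so higher reads as stronger inhibition. About 69,000 compounds were tested under these conditions; 1.5% (about 1,000) showed 50% or more at least once.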
TcHisRS: 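Histidine-tRNA ligase, Trypanosoma cruzi CL Brener (UniProt Q4DA54). Enzyme assay of histidyl-tRNA synthetase; the read-out is not stated. Compounds at 30 µM. The record gives no direction; compounds that gave an IC50 in retests scored well above the rest, so higher reads as stronger inhibition. About 69,000 compounds were tested under these conditions; 0.045% (about 31) showed 50% or more at least once.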

| # | Compound | MtTrpRS | Leishmania in macrophages | TcHisRS |
|---|---|---|---|---|
| 1 | `Cc1cc(CNC(=O)Cc2cccs2)ccc1S(C)(=O)=O` | -4.464 | 8.375 | 3.093 |
| 2 | `Cc1cc(N(C)CCN(C)C2CCCC2)n2nc(C)cc2n1` | 2.855 | 18.47 | 8.163 |
| 3 | `CCOC(=O)c1coc(N2CCN(Cc3ccc(C)cc3)C(=O)C2)n1` | -3.659 | 15.05 | 10.59 |
| 4 | `OC(CNc1ccncn1)CN1CCCCCC1` (centres undefined) | 4.515 | -1.58 | -4.721 |
| 5 | `[H][C@]12CC[C@]([H])(CN(c3ncccn3)C1)N(C(=O)CCOCC)C2` | - | 25.99 | - |
| 6 | `O=C(CN1CCC(c2nnc(C(F)(F)F)o2)CC1)Nc1cccc(Cl)c1` | 7.239 | 9.87 | -1.587 |
| 7 | `CCC(NC(=O)NCc1cc(Cl)ccc1OC)c1noc(C)n1` (centres undefined) | 10.84 | -11.48 | 2.597 |
| 8 | `CCc1ccc(CNC(=O)NC(C)CN2CCOCC2)s1` (centres undefined) | 1.801 | 29.03 | 1.087 |
| 9 | `CCC(=O)NCCCn1c(-c2cccnc2C)cc2cccnc21` | -7.963 | - | 5.747 |
| 10 | `COCCn1cc(NC(=O)C(C)CCc2ccccc2F)ccc1=O` (centres undefined) | 9.508 | 35.26 | 37.66 |
| 11 | `CCC[C@H]1CN(S(C)(=O)=O)C[C@@H]1NC(=O)c1ccc(COC)cc1` | -3.604 | 33.59 | 2.632 |
| 12 | `Cc1ccoc1C(=O)N1CCn2cc(CN3CCCC3)nc2C1` | -3.44 | 12.77 | 6.863 |
| 13 | `CN(C)c1nc2c(c(N(C)C)n1)CCN(C(=O)CN1CCC(O)CC1)C2` | -1.207 | 24.88 | 3.448 |
| 14 | `COCCOc1ncccc1C(=O)Nc1c(C)cnn1CC1CC1` | 2.428 | -10.05 | -4.124 |
| 15 | `CNS(=O)(=O)Cc1cccc(CNCc2ccsc2)c1` | -6.989 | -12.72 | 6.897 |
| 16 | `CC(C)(C)n1ncc2c1CCCC2NCc1ccsc1` (centres undefined) | -1.651 | 8.392 | 4.386 |
| 17 | `CN(C)C(=O)COC1COC2(CCN(c3cccc(F)c3)CC2)C1.O=C(O)C(F)(F)F` (centres undefined) | - | 52.62 | - |
| 18 | `[H][C@@]12CN(Cc3scnc3C)C[C@H](C(=O)NC3CCCC3)[C@]1([H])CCO2` | - | 12.08 | - |
| 19 | `Cc1nc(N2CCCC2)nc2c1CCN(Cc1ccco1)CC2` | 4.722 | - | -1.622 |
| 20 | `Cc1ccccc1CS(=O)(=O)CC(=O)N(C)Cc1ccccc1` | 0.2241 | 6.552 | 9.412 |
| 21 | `Cc1cccc(-c2nc(C)nn2CN2CCN(S(C)(=O)=O)CC2)c1` | -0.7802 | 12.93 | 7.937 |
| 22 | `CC1CCC(N2CCC(NS(=O)(=O)CCOC(C)C)CC2)CC1` (centres undefined) | -1.65 | -27.94 | 5.882 |
| 23 | `[H][C@@]12CCN(S(=O)(=O)C3CC3)[C@]1([H])CC[C@H](c1nc(C)no1)O2` | - | 34.31 | - |
| 24 | `CCN(Cc1ccccc1)C(=O)CN1CCOC(Cn2cncn2)C1` (centres undefined) | 4.928 | -9.049 | 3.429 |
| 25 | `COC(=O)C(C)(C)NC(=O)c1cc(COc2ccccc2OC)[nH]n1` | 2.436 | 16.39 | 2.469 |
| 26 | `Cn1[nH]c(C2CCC2)c(-c2ccc3c(c2)OCO3)c1=N` | 2.602 | 18.85 | 9.827 |
| 27 | `Oc1cc(-c2cccs2)nc(C2CCCN(CC3=CCCOC3)C2)n1` (centres undefined) | 2.888 | 7.082 | 7.143 |
| 28 | `[H][C@]12CC[C@]([H])(CN(C(=O)c3csc(Cc4ccccc4)n3)C1)N(C)C2=O` | - | 2.322 | - |
| 29 | `[H][C@@]12CCN(C(=O)c3cnccn3)C[C@@]1([H])O[C@H](c1nc(C)cs1)C2` | - | 14.26 & -4.774 | - |
| 30 | `Cc1occc1C(=O)N1CCC2(CC1)C(c1cnn(C)c1)CC(=O)N2C` (centres undefined) | -1.657 | -50.61 | 4.972 |
| 31 | `COc1ccccc1-c1ccnc2nc(N3CCCCC3)[nH]c(=O)c12` | -5.272 | 64.29 | 2.959 |
| 32 | `CN1CCN(c2ccc(NCc3ccsc3)cn2)CC1` | 1.288 | -15.82 | 10.12 |
| 33 | `Cn1cnc2cc(C(=O)N3CCC(c4ccccc4C(=O)O)C3)cnc21` (centres undefined) | -3.184 | 18.14 | -15.46 |
| 34 | `O=C(COC1CCCC1)N1CCC(C(O)c2ccc(F)cc2)CC1` (centres undefined) | -1.06 | 20.94 | -2.674 |
| 35 | `COc1cc(CN2CCn3c(CO)nnc3C2)ccc1OC(C)C.O=C(O)CC(O)(CC(=O)O)C(=O)O` | - | -1.346 & -4.437 | - |
| 36 | `CCCNC(=O)COc1cccc(-c2nc(C(C)C)no2)c1` | 4.411 | 13.17 | 5 |

4 of the entries, repeated:

- COc1ccccc1-c1ccnc2nc(N3CCCCC3)[nH]c(=O)c12 | MtTrpRS: -5.272%; Leishmania in macrophages: 64.29%; TcHisRS: 2.959%
- COCCOc1ncccc1C(=O)Nc1c(C)cnn1CC1CC1 | MtTrpRS: 2.428%; Leishmania in macrophages: -10.05%; TcHisRS: -4.124%
- Cc1cc(CNC(=O)Cc2cccs2)ccc1S(C)(=O)=O | MtTrpRS: -4.464%; Leishmania in macrophages: 8.375%; TcHisRS: 3.093%
- CN(C)c1nc2c(c(N(C)C)n1)CCN(C(=O)CN1CCC(O)CC1)C2 | MtTrpRS: -1.207%; Leishmania in macrophages: 24.88%; TcHisRS: 3.448%